Taken from: PubChem BioAssay AID652259 (Drosophila RNAi Screening Center, 2013)
Assay: 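Genome-wide hunt for genes that control Wingless pathway activity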 (primary screen). System: Drosophila clone 8 imaginal disc epithelial cells. Reagents: long dsRNA against Drosophila genes. Conditions: pathway stimulated by co-transfected Wingless expression plasmid. Measured: 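Firefly luciferase from a tcf-site Wingless reporter, measured alongside co-transfected Renilla luciferase that tracks transfection; pathway stimulated by a Wingless plasmid; the firefly-to-Renilla ratio is not deposited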. Reading the numbers: firefly reporter light: higher = more Wg reporter light, before normalisation; Renilla control light: higher = more transfected or surviving cells. Hit rule: 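Strong candidates differ from their plate mean by at least two out of four per-plate statistical tests; weak candidates meet just one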. Meaning of the calls: active = candidate regulator (raises or lowers reporter); inactive = not a candidate.
The screen tested about 22,000 reagents; below is an unselected part of those with a known target gene and a result. Of all reagents, 233 (1.1%) got an active call. 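Light values are raw, unnormalised plate reads; the ratio scores behind the reporter calls were not deposited.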 A number with no mark means an inactive call. Names joined by + are all predicted targets of the reagent. The record does not give: the amount of reagent, the time to read-out, the dose of the treatment.

gene | dsRNA | reporter change call, replicate 1 | firefly reporter light, replicate 1 | firefly reporter light, replicate 2 | Renilla control light, replicate 1 | Renilla control light, replicate 2
CG15888 | DRSC15125 | – | 17008 | – | 4330 | –
CG7365 | DRSC10824 | – | 7888 | – | 2115 | –
cv-d | DRSC16522 | – | 2130 | 5104 | 1160 | 1061
cv-d | DRSC16524 | – | 9472 | – | 1865 | –
cv-d | DRSC16526 | – | 17473 | – | 3243 | –
CG6048 | DRSC18398 | – | 15843 | – | 7750 | –
Pcd | DRSC16785 | – | 7920 | – | 2948 | –
CG12126 | DRSC06103 | – | 3837 | 13766 | 1085 | 4012
CG43376 | DRSC02537 | – | 2210 | 10650 | 1148 | 3153
CG31010 | DRSC14006 | – | 4944 | – | 1488 | –
CG6650 | DRSC10685 | – | 4227 | – | 1730 | –
Rif1 | DRSC05593 | – | 20080 | – | 13289 | –
CG13950 | DRSC00368 | – | 3429 | 5328 | 1336 | 2321
CG7222 | DRSC07019 | – | 15464 | – | 4324 | –
fs(1)K10 | DRSC18775 | – | 1720 | 7581 | 853 | 1973
PPO3 | DRSC04325 | – | 8893 | – | 3197 | –
MBD-R2 | DRSC14180 | – | 15668 | – | 1624 | –
CG1951 | DRSC15403 | – | 2096 | 6250 | 1507 | 899
mtd | DRSC12131 | – | 9808 | – | 3640 | –
mtd | DRSC12380 | – | 8560 | – | 3153 | –
mtd | DRSC12381 | – | 16771 | – | 5696 | –
CG3860 | DRSC04425 | – | 9269 | – | 3546 | –
CG6094 | DRSC02927 | – | 14628 | 7.54e5 | 4423 | 3.56e5
CG6094 | DRSC22705 | – | 5.50e5 | 6.10e5 | 2.18e5 | 1.50e5
Stoml2 | DRSC04326 | – | 14185 | – | 4372 | –
CG11885 | DRSC00329 | – | 5065 | – | 1561 | –
Shawn + Tyler | DRSC19564 | – | 2662 | 8316 | 800 | 1748
Shawn + Tyler | DRSC19565 | – | 18969 | – | 12355 | –
Blm + CG14721 | DRSC14943 | – | 20216 | – | 4961 | –
CG33098 | DRSC22903 | – | 4.91e5 | 5.66e5 | 1.95e5 | 1.77e5
CG13748 | DRSC06419 | – | 2547 | 8697 | 817 | 2256
cpb | DRSC00809 | – | 9762 | – | 4963 | –
CG14355 | DRSC14818 | – | 7037 | – | 3955 | –
CG13457 | DRSC10004 | – | 4641 | – | 3561 | –
PolA1 | DRSC16640 | – | 1796 | 4560 | 960 | 2220
Lrp4 | DRSC20118 | – | 1976 | 8770 | 564 | 1702
Sox102F | DRSC17204 | – | 3440 | 8081 | 1302 | 3077
CG33460 | DRSC05570 | – | 21069 | – | 14196 | –
Nnk | DRSC15274 | – | 15987 | – | 3511 | –
CG1902 | DRSC06798 | – | 8659 | – | 2664 | –
CG31126 | DRSC14623 | – | 17776 | – | 11501 | –
Npc2f | DRSC15980 | – | 2311 | 7653 | 1296 | 1949
Lcch3 | DRSC22175 | – | 6.30e5 | 6.84e5 | 2.17e5 | 2.19e5
CAP | DRSC05215 | – | 22121 | – | 19597 | –
CAP | DRSC06743 | – | 6182 | – | 2663 | –
CAP | DRSC06744 | – | 6970 | 18064 | 712 | 2759
CAP | DRSC06745 | – | 2851 | 7510 | 1092 | 4006
CAP | DRSC06846 | – | 3282 | 10714 | 1168 | 4353
BckdhB | DRSC21183 | – | 13987 | – | 8396 | –
CG4949 | DRSC19926 | – | 2282 | 7101 | 1357 | 3414
CG11384 | DRSC18628 | – | 19572 | – | 13379 | –
CG7556 | DRSC20052 | – | 2106 | 6880 | 706 | 3444
CG33346 | DRSC22898 | – | 5.53e5 | 4.82e5 | 2.22e5 | 95750
DIP-iota | DRSC02140 | – | 1926 | 7657 | 693 | 2321
Syt7 | DRSC17130 | – | 28504 | – | 25971 | –
Syt7 | DRSC17159 | – | 22553 | – | 19621 | –
CG13492 | DRSC04137 | – | 2140 | 7991 | 656 | 2694
CG9919 | DRSC20219 | – | 27389 | – | 13833 | –
CG9386 | DRSC16485 | – | 11063 | – | 1785 | –
promL | DRSC08733 | – | 3862 | – | 1018 | –
CR30029 | DRSC06724 | – | 8032 | – | 2522 | –
Myb | DRSC20260 | – | 1130 | 3207 | 557 | 1179
Eglp1 | DRSC04502 | – | 20279 | – | 4332 | –
GrlHz | DRSC04424 | – | 10108 | – | 2604 | –
CG40485 | DRSC20624 | – | 22049 | – | 12296 | –
FRG1 | DRSC10648 | – | 16507 | – | 6469 | –
Dbct | DRSC19951 | – | 3952 | 8221 | 1187 | 3120
Met | DRSC20284 | – | 15254 | – | 8003 | –
Vps13 | DRSC06817 | – | 2022 | 6689 | 700 | 2066
Ser6 | DRSC20574 | – | 18781 | – | 11781 | –
eIF3d1 | DRSC16938 | Wg reporter activity raised | 20503 | – | 10562 | –
up | DRSC20382 | – | 3256 | 7533 | 963 | 2000
CG33120 | DRSC02073 | – | 9824 | – | 2298 | –

10 successive records already listed, for reference:
gene | dsRNA | reporter change call, replicate 1 | firefly reporter light, replicate 1 | firefly reporter light, replicate 2 | Renilla control light, replicate 1 | Renilla control light, replicate 2
DIP-iota | DRSC02140 | – | 1926 | 7657 | 693 | 2321
Syt7 | DRSC17130 | – | 28504 | – | 25971 | –
Syt7 | DRSC17159 | – | 22553 | – | 19621 | –
CG13492 | DRSC04137 | – | 2140 | 7991 | 656 | 2694
CG9919 | DRSC20219 | – | 27389 | – | 13833 | –
CG9386 | DRSC16485 | – | 11063 | – | 1785 | –
promL | DRSC08733 | – | 3862 | – | 1018 | –
CR30029 | DRSC06724 | – | 8032 | – | 2522 | –
Myb | DRSC20260 | – | 1130 | 3207 | 557 | 1179
Eglp1 | DRSC04502 | – | 20279 | – | 4332 | –
